Data reported in PubChem BioAssay AID212 (DTP/NCI, 2004).
The list shows only some results of the screen, not a fair sample: it gathers tests that were run many times, whatever their T/C, doses with no T/C, and many T/C values between a quarter and a half above the control. Other doses and runs of a compound stand elsewhere. T/C is the treated group as % of the vehicle group. Schedules are NCI's codes, read here as Q, the interval in days (D) or hours (H), X, the number of doses. Some T/C values are followed by the survivors on the day toxicity was checked, most often the fifth; without a count, all were alive then. Some entries were tested several times; the results are listed from low to high. Some doses have a count of surviving animals in place of a T/C: the source holds a T/C of zero for them, seemingly a mark for toxic or unscored doses. Counts of survivors are from the toxicity check (mostly the fifth day) where no day follows; animals may have died later.

System: BDF1 mice, colon carcinoma 38 sc, T/C %
Assay: NCI In Vivo Anticancer Drug Screen. Data for tumor model Colon Carcinoma 38 (subcutaneous) in B6D2F1 (BDF1) mice
Conditions: T/C endpoint: median tumor weight (est.), higher T/C = larger tumour; for T/C: evaluated on day 20
Method in brief: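 Ratio of survival or tumor size, compound-treated animals relative to vehicle controls, in tumor-bearing mice.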

[1] = dose: 200.0 mg/kg/injection, schedule: Q07DX002 (ip), vehicle: saline
[2] = dose: 400.0 mg/kg/injection, schedule: Q07DX002 (ip), vehicle: saline
[3] = dose: 200.0 mg/kg/injection, schedule: Q07DX002 (ip), vehicle: saline with Tween-80
[4] = dose: 25.0 mg/kg/injection, schedule: Q07DX002 (ip), vehicle: saline with Tween-80
[5] = dose: 25.0 mg/kg/injection, schedule: Q07DX002 (ip), vehicle: saline
[6] = dose: 50.0 mg/kg/injection, schedule: Q07DX002 (ip), vehicle: saline with Tween-80
[7] = dose: 100.0 mg/kg/injection, schedule: Q07DX002 (ip), vehicle: saline with Tween-80
[8] = dose: 12.5 mg/kg/injection, schedule: Q07DX002 (ip), vehicle: saline with Tween-80
[9] = dose: 100.0 mg/kg/injection, schedule: Q07DX002 (ip), vehicle: saline

For `O=NN(CCCl)C(=O)NCCO`, the T/C (dose: 3.12 mg/kg/injection, schedule: Q07DX002 (ip), vehicle: water) was 128 % of control, the survivor count (dose: 25.0 mg/kg/injection, schedule: Q07DX002 (ip), vehicle: water) was 4 of 10 on day 20 and the survivor count (dose: 50.0 mg/kg/injection, schedule: Q07DX002 (ip), vehicle: water) was 0 of 10 on day 20. The survivor count (dose: 100.0 mg/kg/injection, schedule: Q07DX002 (ip), vehicle: water) was 0 of 10 on day 20.

In the case of `CC(Cc1ccc(O)c(O)c1)C(C)Cc1ccc(O)c(O)c1` (configuration not stated), the T/C [1] is reported as 135 % of control [9 of 10 alive on day 20] and the T/C [2] is reported as 126 % of control [9 of 10 alive on day 20].

For `CCCCCCCCCCCCSC1=C(Cl)C(=O)C(OC)=C(OC)C1=O`, the survivor count [3] was 5 of 10 on day 20 and the survivor count (dose: 400.0 mg/kg/injection, schedule: Q07DX002 (ip), vehicle: saline with Tween-80) was 3 of 10 on day 20 and 6 of 10 on day 20.

For `CCC(C)C(=O)O[C@H]1C(=O)O[C@@H]2C[C@H]3C(C)=CC(=O)[C@@H](O)[C@]3(C)[C@H]3[C@@H](O)[C@H](O)[C@@]4(C)OC[C@]32[C@@H]14` (some centres not stated), the survivor count (dose: 10.0 mg/kg/injection, schedule: Q07DX002 (ip), vehicle: saline + alcohol) was 0 of 10 on day 20, 4 of 10 on day 20, 5 of 10 on day 20, the survivor count (dose: 20.0 mg/kg/injection, schedule: Q07DX002 (ip), vehicle: saline + alcohol) was 0 of 10 on day 20 and 2 of 10 on day 20 and the survivor count (dose: 40.0 mg/kg/injection, schedule: Q07DX002 (ip), vehicle: saline + alcohol) was 0 of 10 on day 20. The survivor count (dose: 80.0 mg/kg/injection, schedule: Q07DX002 (ip), vehicle: saline + alcohol) was 0 of 10 on day 20.

With `CCCCc1ccc(-n2c(C)c(COC(=O)NC)c(COC(=O)NC)c2C)cc1` the T/C (dose: 12.5 mg/kg/injection, schedule: Q07DX002 (ip), vehicle: Klucel (hydroxypropylcellulose) (HPC)) was 141 % of control and the T/C (dose: 25.0 mg/kg/injection, schedule: Q07DX002 (ip), vehicle: Klucel (hydroxypropylcellulose) (HPC)) was 141 % of control.

In the case of `C(COCCOCC1CO1)OCCOCC1CO1` (configuration not stated), the T/C [4] is reported as 142 % of control, the T/C [5] is reported as 125 % of control and the T/C [6] is reported as 126 % of control. For the same molecule, the T/C [7] was 140 % of control and the T/C [1] was 126 % of control.

In the case of `COC(=O)C(F)C(Br)C(=O)OC` (configuration not stated), the T/C [8] is reported as 134 % of control [9 of 10 alive].

With `Cc1ccccc1CN1C2=NCCN2C(=O)C2=C1CCN(S(=O)(=O)c1ccc(Cl)c(S(N)(=O)=O)c1)C2` the T/C (dose: 800.0 mg/kg/injection, schedule: Q07DX002 (ip), vehicle: saline) was 143 % of control and the survivor count (dose: 3600.0 mg/kg/injection, schedule: Q07DX002 (ip), vehicle: saline) was 6 of 10 on day 20.

With `NC(=O)c1ncn(C2OC(CO)C(O)C2O)n1` (configuration not stated) the T/C (dose: 12.5 mg/kg/injection, schedule: Q07DX002 (ip), vehicle: saline) was 88, 89, 111, 150 % of control, the T/C [5] was 71, 83, 107, 124 % of control and the T/C (dose: 50.0 mg/kg/injection, schedule: Q07DX002 (ip), vehicle: saline) was 82, 88, 104, 159 % of control. For the same molecule, the T/C [9] was 65 [9 of 10 alive on day 20], 93, 106, 129 % of control, the T/C [1] was 65, 75 [9 of 10 alive on day 20], 79, 90 % of control and the T/C [2] was 65, 80, 108 [9 of 10 alive on day 20], 151 % of control [9 of 10 alive on day 20].

`CCCCCCCCSC1=C(Cl)C(=O)C(OC)=C(OC)C1=O` was tested, and the T/C (dose: 6.25 mg/kg/injection, schedule: Q07DX002 (ip), vehicle: saline with Tween-80) was 45 [9 of 10 alive on day 20], 85, 86, 103 % of control, the T/C [8] was 66, 70 [7 of 10 alive on day 20], 83, 85 % of control [7 of 10 alive on day 20] and the T/C [4] was 42 [7 of 10 alive on day 20], 65, 92, 108 % of control. The T/C [6] was 100 % of control and the survivor count [6] was 2 of 10 on day 20, 4 of 10 on day 20, 6 of 10 on day 20.

`CCCC[C@H]1C(=O)O[C@H](C)[C@H](NC(=O)c2cccc(NC=O)c2O)C(=O)O[C@@H](C)[C@@H]1OC(=O)CC(C)C` was tested, and the survivor count (dose: 2.0 mg/kg/injection, schedule: Q07DX002 (ip), vehicle: Klucel (hydroxypropylcellulose) (HPC)) was 5 of 10 on day 20 and the survivor count (dose: 4.0 mg/kg/injection, schedule: Q07DX002 (ip), vehicle: Klucel (hydroxypropylcellulose) (HPC)) was 2 of 10 on day 20.

`CNC(=O)OCc1c(COC(=O)NC)c(-c2ccccc2)n(C)c1-c1ccccc1` was tested, and the survivor count (dose: 100.0 mg/kg/injection, schedule: Q07DX002 (ip), vehicle: distilled water + Tween-80) was 2 of 10 on day 20 and the survivor count (dose: 200.0 mg/kg/injection, schedule: Q07DX002 (ip), vehicle: distilled water + Tween-80) was 0 of 10 on day 20.

With `COc1cc2c[n+](C)c3c4cc5c(cc4ccc3c2cc1OC)OCO5` the T/C (dose: 80.0 mg/kg/injection, schedule: Q07DX003 (ip), vehicle: saline with Tween-80) was 125 % of control.

With `NC(=O)c1ncn2c(=O)n(CCCl)nnc12` the survivor count (dose: 100.0 mg/kg/injection, schedule: Q07DX002 (ip), vehicle: Klucel (hydroxypropylcellulose) (HPC)) was 0 of 10 on day 20, 1 of 10 on day 20, 4 of 10 on day 20 and the survivor count [9] was 4 of 10 on day 20 and 6 of 10 on day 20.

In the case of `COC(=O)[C@@H]1c2cc3c(c(O)c2[C@@H](OC)C[C@@]1(C)O)C(=O)c1c(O)cc2c(c1C3=O)OC1O[C@@]2(C)[C@H](O)[C@@H](N(C)C)[C@@H]1O`, the T/C [5] is reported as 147 % of control, the T/C (dose: 25.0 mg/kg/injection, schedule: Q07DX003 (ip), vehicle: suspension in saline) is reported as 127 % of control and the survivor count [1] is reported as 0 of 10 on day 20. The survivor count [2] was 0 of 10 on day 20.

With `O=Cc1ccc([N+](=O)[O-])s1` the T/C [4] was 137 % of control, the survivor count [7] was 5 of 10 on day 20 and the survivor count [3] was 5 of 10 on day 20.
